Data reported in patent publication US20100234238A1, “METHOD FOR PROFILING KINASE INHIBITORS” (Janssen Pharmaceutica N V, priority 2006, published 2010).

Tests used:
Test in all cases: PAMCHIP96 (140-peptide array) profiling of xenograft tumor lysates in absence or presence of MTKI
Type in all cases: biochemical
[1] = test system: tyrosine kinase activity in xenograft tumor lysates; parameters: key: R = Responder to MTKI; NR = Non-Responder to MTKI; conditions: 21 signature peptides
Procedure: (§1) 100 mg of frozen tumor or tissue blocks, or sections, are lysed in 1 ml of M-PER buffer (PIERCE) containing phosphatase and protease inhibitors (HALT, PIERCE). The suspension is mixed using a ULTRA-TURRAX blender (IKA werke), and centrifuged twice for 10 minutes at 12 000×g. Supernatant lysates are filtered through a 0.2 micrometer filter (Anotop 0.2 μm anopore filter; Whatmann). Lysates are flash frozen in liquid nitrogen and stored at −80C.
(§2) Just prior to the PAMCHIP experiment, total protein content is quantitated in the lysates and lysates are diluted to 1 mg/ml in a total volume of 200 μl, with M-PER phosphatase and protease inhibitors (HALT, PIERCE). 10 μg of total lysate (corresponding to 10 μl) will be used per well on the PAMCHIP96.
(§3) To all 200 μl lysates 10 units of benzonase (Novagen) is added and lysates are further incubated for 30 min on ice and next centrifuged for 10 minutes at 12 000×g. The supernatant is then 1:1 diluted with compound or DMSO diluted to the appropriate concentration in water, and lysates are further incubated exactly 60 min on ice. Meanwhile, a PAMCHIP96 tyrosine peptide chip (PAMGENE) is blocked with 2% BSA (filtered through a 0.2 μm anopore filter; Whatmann) using the standard setting of a PAMSTATION96 (PAMGENE).
(§4) The composition of the kinase buffer is as follows: 1×ABL buffer (NEB), 0.5 mg/ml BSA (from 10 mg/ml NEB stock), 100 μM ATP (dissolved and diluted in 1×ABL buffer), 5 μg/ml PY20-FITC (ExAlpha Biologicals, azide-free preparation). A twofold concentrated kinase buffer is prepared chilled on ice, DMSO or compound is added as appropriate, and the solution is added 1:1 to the (compound treated) ice cold lysates, and immediately applied to a tyrosine peptide PAMCHIP96. The assay is run on a PAMSTATION96 according to standard procedures: after loading of the plate, solution is pumped once onto the wells, a first exposure is read (150 mSec) and then a kinetic reading program (reading every 5 min for 150 mSec) is run for 60 min. Lysates are run in 6 technical replicates for each condition; replicates are always applied horizontally next to each other to avoid vertical strip effects of the chip.
The data (spot images) are further quantified and linked to the peptide identities using EVOLVE PAMGRID software (PAMGENE). The quantified data are then fit to a curve using CurveFitHT software (PAMGENE) using the Vinip2 curve fitting algorithm, applied on the first 30 min of the assay; the initial velocity is derived at the first kinetic time point read. All subsequent data analyses were done on initial velocities (Vini) using the software packages Omniviz and R (Ihaka, R. and Gentlemen, R. (1996) R: a language for data analysis and graphics. J. Comput. Graph. Stat., 5, 299-314). […]

[2] = test system: tyrosine kinase activity in xenograft tumor lysates; parameters: key: A Responder is predicted when minimally 7 peptides have a ratio <0.8; NR = Non-Responder to MTKI; conditions: PC3 xenograft tumor lysate; 21 peptides of 140-peptide array
Procedure: as §1
as §2, with “PAMCHIP96. […]” for “PAMCHIP96.”
The composition of the kinase buffer is as follows: 1×ABL buffer (NEB), 0.5 mg/ml BSA (from 10 mg/ml NEB stock), 100 μM ATP (dissolved and diluted in 1×ABL buffer), 5 μg/ml PY20-FITC (ExAlpha Biologicals, azide-free preparation). […] The assay is run on a PAMSTATION96 according to standard procedures: after loading of the plate, solution is pumped once onto the wells, a first exposure is read (150 mSec) and then a kinetic reading program (reading every 5 min for 150 mSec) is run for 60 min. […]
The data (spot images) are further quantified and linked to the peptide identities using EVOLVE PAMGRID software (PAMGENE). […]

[3] = test system: tyrosine kinase activity in xenograft tumor lysates; parameters: key: R: A responder is predicted when minimally 4 peptides have a ratio <0.8; NR = Non-Responder to MTKI
Procedure: as §1, §2, §3, §4
The data (spot images) are further quantified and linked to the peptide identities using EVOLVE PAMGRID software (PAMGENE). The quantified data are then fit to a curve using CurveFitHT software (PAMGENE) using the Vinip2 curve fitting algorithm, applied on the first 30 min of the assay; the initial velocity is derived at the first kinetic time point read. All subsequent data analyses were done on initial velocities (Vini) using the software packages Omniviz and R (Ihaka, R. and Gentlemen, R. (1996) R: a language for data analysis and graphics. J. Comput. Graph. Stat., 5, 299-314).
After replacing the Vini's lower than 0.1 by 0.1, all Vini's were log 2-transformed to approach normality. […] This test was done for each peptide separately using a mixed model (Littell, R. C., Milliken, G. A., Stroup, W. W., Wolfinger, R. D. 1996. SAS system for mixed models. Cary, N. C.: SAS Institute Inc.) allowing the incorporation of both technical variation (i.e., the variation across replicates) and biological variation (i.e., the variation among the various responding and non-responding cell lines or tumors). Variation between cell lines or tumors in Vini and in treatment effect on Vini was modeled respectively by random intercepts and random compound effects per cell line or tumor, nested in response status. The difference in compound-induced reduction in Vini between responding and non-responding cell lines or tumors was tested through the interaction between compound treatment and response status, both modeled as fixed effects.

In the case of `COc1cc2ncnc3c2cc1OCCCCCN(C)Cc1ccc(Br)cc1N3` [MTKI, 4,6-ethanediylidenepyrimido[4,5-b][6,1,12]benzoxadiazacyclopentadecine, 17-bromo-8,9,10,11,12,13,14,19-octahydro-20-methoxy-13-methyl-], the response prediction ([1]; A431 xenograft tumor lysate) is reported as “R”, the response prediction ([1]; DU145 xenograft tumor lysate) is reported as “R” and the response prediction ([1]; H322 xenograft tumor lysate) is reported as “R”. For the same molecule, the response prediction ([1]; H3255 xenograft tumor lysate) was “R”, the response prediction [2] was “R” and the response prediction ([3]; BT474 xenograft tumor lysate, 21 signature peptides) was “NR”. The response prediction ([3]; H441 xenograft tumor lysate, 21 peptides of 140-peptide array) was “NR”, the response prediction ([3]; H460 xenograft tumor lysate, 21 peptides of 140-peptide array) was “NR” and the response prediction ([3]; H1703 xenograft tumor lysate, 21 peptides of 140-peptide array) was “NR”. The response prediction ([3]; HT29 xenograft tumor lysate, 21 peptides of 140-peptide array) was “NR”, the response prediction ([3]; SKOV3 xenograft tumor lysate, 21 peptides of 140-peptide array) was “NR” and the response prediction ([3]; SUM149 xenograft tumor lysate, 21 signature peptides) was “NR”.
